Data published in publication PMC10608102.
These are yes or no findings as the source states them, for the method shown. In cells and extracts the contact can be indirect. These calls come from enrichment with a bait or labelling near it, and not all partners need be listed.

Protein sequences, listed by entry. Tags and fused reporters are not part of them. Lines headed by an entry give the natural chain unless they say otherwise; changes in a name come on top.
UniProt R0M8E4: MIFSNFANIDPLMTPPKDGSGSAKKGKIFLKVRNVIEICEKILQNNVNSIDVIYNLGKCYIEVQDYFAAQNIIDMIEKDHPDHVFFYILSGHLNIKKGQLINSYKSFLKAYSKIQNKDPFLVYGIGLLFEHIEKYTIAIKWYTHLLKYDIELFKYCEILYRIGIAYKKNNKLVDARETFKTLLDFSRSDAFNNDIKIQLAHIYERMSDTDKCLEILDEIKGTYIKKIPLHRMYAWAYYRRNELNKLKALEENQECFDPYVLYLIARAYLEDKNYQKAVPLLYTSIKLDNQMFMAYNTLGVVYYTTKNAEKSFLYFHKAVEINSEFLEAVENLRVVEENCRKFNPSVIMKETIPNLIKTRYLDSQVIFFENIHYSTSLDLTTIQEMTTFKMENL
UniProt R0M0F9: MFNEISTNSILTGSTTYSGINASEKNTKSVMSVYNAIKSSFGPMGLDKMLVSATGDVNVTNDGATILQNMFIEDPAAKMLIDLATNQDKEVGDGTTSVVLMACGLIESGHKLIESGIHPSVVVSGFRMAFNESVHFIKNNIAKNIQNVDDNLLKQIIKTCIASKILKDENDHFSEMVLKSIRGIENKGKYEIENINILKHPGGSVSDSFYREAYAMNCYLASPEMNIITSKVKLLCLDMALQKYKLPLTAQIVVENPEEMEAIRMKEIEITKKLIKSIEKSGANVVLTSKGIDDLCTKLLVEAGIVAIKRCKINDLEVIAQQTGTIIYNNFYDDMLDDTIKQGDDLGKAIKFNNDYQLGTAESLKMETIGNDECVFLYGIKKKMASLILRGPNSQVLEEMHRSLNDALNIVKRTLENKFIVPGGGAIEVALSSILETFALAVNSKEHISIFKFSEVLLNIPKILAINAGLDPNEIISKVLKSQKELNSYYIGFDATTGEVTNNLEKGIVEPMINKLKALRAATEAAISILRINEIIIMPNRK
UniProt R0M6E7: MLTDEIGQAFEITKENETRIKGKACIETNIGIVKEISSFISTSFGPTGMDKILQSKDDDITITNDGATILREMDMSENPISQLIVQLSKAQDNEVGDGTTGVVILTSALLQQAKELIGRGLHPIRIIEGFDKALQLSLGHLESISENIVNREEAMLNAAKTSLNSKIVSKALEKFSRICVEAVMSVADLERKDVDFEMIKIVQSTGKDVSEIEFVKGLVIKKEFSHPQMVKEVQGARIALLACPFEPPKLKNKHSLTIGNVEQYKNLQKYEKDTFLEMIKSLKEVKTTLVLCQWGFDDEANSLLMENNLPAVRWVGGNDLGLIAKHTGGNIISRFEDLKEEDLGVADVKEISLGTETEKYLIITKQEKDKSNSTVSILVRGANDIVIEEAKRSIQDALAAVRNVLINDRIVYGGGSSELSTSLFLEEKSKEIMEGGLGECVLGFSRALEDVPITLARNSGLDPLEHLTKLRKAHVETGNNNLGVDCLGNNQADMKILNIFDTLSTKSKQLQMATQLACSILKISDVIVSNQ
UniProt R0KU88: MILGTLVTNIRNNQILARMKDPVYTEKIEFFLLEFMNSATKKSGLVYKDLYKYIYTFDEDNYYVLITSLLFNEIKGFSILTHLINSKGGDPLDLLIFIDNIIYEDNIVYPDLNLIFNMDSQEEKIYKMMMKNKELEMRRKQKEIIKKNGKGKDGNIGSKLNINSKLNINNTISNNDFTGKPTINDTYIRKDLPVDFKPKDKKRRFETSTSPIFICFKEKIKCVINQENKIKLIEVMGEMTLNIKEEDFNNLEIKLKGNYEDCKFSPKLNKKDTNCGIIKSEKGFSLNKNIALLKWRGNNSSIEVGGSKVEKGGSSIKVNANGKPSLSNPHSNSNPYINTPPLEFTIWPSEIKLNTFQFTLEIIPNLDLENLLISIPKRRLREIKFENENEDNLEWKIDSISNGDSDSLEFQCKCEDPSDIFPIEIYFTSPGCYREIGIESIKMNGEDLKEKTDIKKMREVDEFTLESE
UniProt R0MKS5: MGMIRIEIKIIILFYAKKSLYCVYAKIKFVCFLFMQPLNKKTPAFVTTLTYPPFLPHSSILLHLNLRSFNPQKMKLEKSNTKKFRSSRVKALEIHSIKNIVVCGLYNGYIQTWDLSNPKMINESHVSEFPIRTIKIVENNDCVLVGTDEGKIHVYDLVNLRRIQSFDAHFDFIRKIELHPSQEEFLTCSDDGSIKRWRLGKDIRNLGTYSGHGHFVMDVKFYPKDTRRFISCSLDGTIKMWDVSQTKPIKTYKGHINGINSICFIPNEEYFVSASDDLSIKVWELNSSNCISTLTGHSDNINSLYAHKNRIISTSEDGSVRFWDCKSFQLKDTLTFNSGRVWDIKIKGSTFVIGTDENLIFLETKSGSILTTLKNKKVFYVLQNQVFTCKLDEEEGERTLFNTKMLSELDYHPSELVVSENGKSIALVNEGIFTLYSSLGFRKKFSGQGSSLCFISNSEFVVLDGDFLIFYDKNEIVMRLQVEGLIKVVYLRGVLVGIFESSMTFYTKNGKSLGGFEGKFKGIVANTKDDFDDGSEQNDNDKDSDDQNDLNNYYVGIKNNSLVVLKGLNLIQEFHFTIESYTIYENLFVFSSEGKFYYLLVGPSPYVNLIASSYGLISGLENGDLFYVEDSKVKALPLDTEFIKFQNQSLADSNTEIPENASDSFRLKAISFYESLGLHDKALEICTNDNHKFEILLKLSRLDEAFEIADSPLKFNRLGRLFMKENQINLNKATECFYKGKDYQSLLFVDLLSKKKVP
UniProt R0M363: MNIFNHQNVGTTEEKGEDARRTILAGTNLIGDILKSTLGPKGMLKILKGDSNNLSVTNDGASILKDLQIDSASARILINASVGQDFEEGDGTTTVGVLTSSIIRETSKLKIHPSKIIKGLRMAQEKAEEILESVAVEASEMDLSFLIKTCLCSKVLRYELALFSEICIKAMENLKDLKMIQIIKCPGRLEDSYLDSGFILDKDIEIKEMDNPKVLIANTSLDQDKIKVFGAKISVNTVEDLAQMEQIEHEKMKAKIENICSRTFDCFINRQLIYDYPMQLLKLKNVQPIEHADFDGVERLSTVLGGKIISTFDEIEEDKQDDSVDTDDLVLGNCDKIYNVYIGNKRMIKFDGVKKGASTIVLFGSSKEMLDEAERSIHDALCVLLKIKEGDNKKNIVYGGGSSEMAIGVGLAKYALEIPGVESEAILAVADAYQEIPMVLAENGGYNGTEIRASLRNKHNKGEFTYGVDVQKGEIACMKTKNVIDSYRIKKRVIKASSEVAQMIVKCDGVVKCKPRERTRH
UniProt R0MRC6: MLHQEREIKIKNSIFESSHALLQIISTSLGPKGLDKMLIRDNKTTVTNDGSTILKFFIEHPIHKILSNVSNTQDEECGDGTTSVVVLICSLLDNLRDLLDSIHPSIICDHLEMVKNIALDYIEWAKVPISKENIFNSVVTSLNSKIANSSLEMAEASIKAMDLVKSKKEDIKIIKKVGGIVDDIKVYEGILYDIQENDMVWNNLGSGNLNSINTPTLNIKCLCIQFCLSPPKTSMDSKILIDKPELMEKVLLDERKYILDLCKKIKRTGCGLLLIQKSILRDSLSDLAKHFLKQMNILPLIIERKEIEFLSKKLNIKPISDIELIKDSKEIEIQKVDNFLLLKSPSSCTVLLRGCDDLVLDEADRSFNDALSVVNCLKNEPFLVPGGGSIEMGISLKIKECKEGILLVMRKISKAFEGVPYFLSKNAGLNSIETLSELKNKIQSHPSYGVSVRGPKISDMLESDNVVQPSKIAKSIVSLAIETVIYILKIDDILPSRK
UniProt R0KMZ4: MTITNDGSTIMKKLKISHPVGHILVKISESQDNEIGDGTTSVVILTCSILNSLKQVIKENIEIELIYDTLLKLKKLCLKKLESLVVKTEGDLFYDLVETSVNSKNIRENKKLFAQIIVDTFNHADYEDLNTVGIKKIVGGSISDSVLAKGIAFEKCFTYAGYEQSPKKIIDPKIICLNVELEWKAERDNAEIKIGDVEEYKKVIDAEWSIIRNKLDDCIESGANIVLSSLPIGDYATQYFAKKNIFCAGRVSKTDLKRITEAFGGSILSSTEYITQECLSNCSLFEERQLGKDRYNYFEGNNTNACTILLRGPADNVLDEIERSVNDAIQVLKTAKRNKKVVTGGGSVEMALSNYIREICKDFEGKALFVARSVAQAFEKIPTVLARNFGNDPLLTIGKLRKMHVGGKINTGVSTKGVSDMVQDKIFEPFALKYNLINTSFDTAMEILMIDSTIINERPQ
UniProt R0KPG4: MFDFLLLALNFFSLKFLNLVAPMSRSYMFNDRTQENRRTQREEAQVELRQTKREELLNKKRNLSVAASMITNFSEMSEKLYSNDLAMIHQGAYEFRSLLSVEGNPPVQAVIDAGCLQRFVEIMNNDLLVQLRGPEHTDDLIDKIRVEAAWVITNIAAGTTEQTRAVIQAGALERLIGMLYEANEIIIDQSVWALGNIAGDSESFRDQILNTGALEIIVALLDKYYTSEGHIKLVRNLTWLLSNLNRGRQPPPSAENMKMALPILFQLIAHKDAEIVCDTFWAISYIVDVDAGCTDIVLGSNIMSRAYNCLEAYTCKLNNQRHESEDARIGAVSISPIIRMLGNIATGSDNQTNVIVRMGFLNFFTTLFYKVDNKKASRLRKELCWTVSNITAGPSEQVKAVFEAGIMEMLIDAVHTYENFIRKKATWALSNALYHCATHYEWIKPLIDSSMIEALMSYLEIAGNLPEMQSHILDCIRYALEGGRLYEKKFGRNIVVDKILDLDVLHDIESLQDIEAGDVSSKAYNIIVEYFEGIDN
UniProt R0KN94: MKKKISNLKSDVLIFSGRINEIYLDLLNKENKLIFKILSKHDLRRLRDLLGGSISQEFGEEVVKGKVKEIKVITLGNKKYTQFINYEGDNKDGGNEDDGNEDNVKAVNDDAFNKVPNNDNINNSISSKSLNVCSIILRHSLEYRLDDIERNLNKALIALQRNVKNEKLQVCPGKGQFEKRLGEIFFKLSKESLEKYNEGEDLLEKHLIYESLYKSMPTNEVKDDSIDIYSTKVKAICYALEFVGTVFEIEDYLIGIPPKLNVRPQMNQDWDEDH

Molecular target: general transcriptional corepressor Ssn6 of Nosema bombycis (Nbssn6) (Nosema bombycis (endogenous in N. bombycis spores)) (UniProt R0M8E4)
Assay: affinity purification with mass spectrometry; Co-IP: 2 ug Nbssn6 polyclonal antibody in 500 uL protein solution of N. bombycis (NP-40 lysate) with protease inhibitor cocktail, 4 °C 16 h; Protein A magnetic beads 4 °C 6~8 h; washed with PBS 3 times; specific SDS-PAGE (Coomassie) bands cut for mass spectrometry; rabbit IgG as negative control

Row | Substance | binding
1 | T-complex protein 1 subunit alpha (from UniProt R0M0F9) | binds
2 | T-complex protein 1 subunit epsilon (from UniProt R0M6E7) | binds
3 | Coatomer subunit delta-3 (from UniProt R0KU88) | binds
4 | Coatomer subunit beta (from UniProt R0MKS5) | binds
5 | T-complex protein 1 subunit beta (from UniProt R0M363) | binds

Results, then the substance that gave them:

Row | binding | Substance
6 | binds | T-complex protein 1 subunit delta (from UniProt R0MRC6)
7 | binds | T-complex protein 1 subunit eta (from UniProt R0KMZ4)
8 | binds | Importin subunit alpha-2 (from UniProt R0KPG4)
9 | binds | T complex protein 1 theta subunit (from UniProt R0KN94)
